# According to PubChem BioAssay AID220 (DTP/NCI, 2004):
# The list shows only some results of the screen, not a fair sample: it is rich in T/C values a quarter to a half above the control, in often repeated tests (any T/C) and in doses without a T/C. Further doses and runs are listed elsewhere. T/C is the treated group as % of the vehicle group. Schedules are NCI's codes, read here as Q, the interval in days (D) or hours (H), X, the number of doses. Some T/C values carry the count of animals alive at the toxicity check (mostly the fifth day); without a count, all were alive then. Some entries give survivors of the animals treated and no T/C: the source files T/C as zero there, which appears to mark a toxic dose or a test without result, not a measured value. Counts of survivors are from the toxicity check (mostly the fifth day) where no day follows; animals may have died later. Some entries hold several experiments; their values stand side by side, smallest first.
# Test system: CD8F1 mice, subcutaneous mammary adenocarcinoma, T/C%
# Assay: NCI In Vivo Anticancer Drug Screen. Data for tumor model Mammary Adenocarcinoma CD8F1 (subcutaneous) in CD8F1
# Details: higher T/C = larger tumour
# Summary of the method: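 Transplantable tumors were established in mice, animals were dosed with compound or vehicle, and survival or tumor size was then measured in both groups. The treated result was divided by the control result.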
# [1] = T/C endpoint: median tumor weight (est.), dose: 400.0 mg/kg/injection, schedule: Q07DX005 (ip), vehicle: water
# [2] = T/C endpoint: median tumor weight change, dose: 25.0 mg/kg/injection, schedule: Q01DX001 (ip), vehicle: saline with Tween-80
# [3] = T/C endpoint: median tumor weight change, dose: 50.0 mg/kg/injection, schedule: Q01DX001 (ip), vehicle: saline with Tween-80
# [4] = T/C endpoint: median tumor weight change, dose: 100.0 mg/kg/injection, schedule: Q01DX001 (ip), vehicle: saline with Tween-80
smiles,measurement,setting,value
CN(C)P(=O)(Oc1ccccc1)N(C)C,T/C,"T/C endpoint: median tumor weight change, dose: 250.0 mg/kg/injection, schedule: Q01DX001 (ip), vehicle: saline with Tween-80, evaluated on day 39",139 % of control [9 of 10 alive on day 39]
same,survivor count,"T/C endpoint: median tumor weight change, dose: 1000.0 mg/kg/injection, schedule: Q01DX001 (ip), vehicle: saline with Tween-80",2 of 10 on day 39
same,survivor count,"T/C endpoint: median tumor weight change, dose: 2000.0 mg/kg/injection, schedule: Q01DX001 (ip), vehicle: saline with Tween-80",1 of 10 on day 39
O=C(O)CSc1nc(-c2ccccc2)c(-c2ccccc2)n1-c1ccccn1,survivor count,"T/C endpoint: median tumor weight (est.), dose: 200.0 mg/kg/injection, schedule: Q07DX005 (ip), vehicle: water",1 of 10 on day 30
same,survivor count,[1],0 of 10 on day 30
COc1cc([C@@H]2c3cc4c(c(O)c3C[C@H]3COC(=O)[C@@H]32)OCO4)cc(OC)c1OC,T/C,"T/C endpoint: median tumor weight (est.), dose: 0.5 mg/kg/injection, schedule: Q07DX005 (ip), vehicle: saline, evaluated on day 30",137 % of control
same,T/C,"T/C endpoint: median tumor weight (est.), dose: 1.0 mg/kg/injection, schedule: Q07DX005 (ip), vehicle: saline, evaluated on day 30",126 % of control
CC(=O)OC1COC(NC(=O)N(CCCl)N=O)C(OC(C)=O)C1OC(C)=O (centres undefined),T/C,"T/C endpoint: median tumor weight (est.), dose: 3.0 mg/kg/injection, schedule: Q07DX005 (ip), vehicle: saline with Tween-80, evaluated on day 30",138 % of control
same,survivor count,"T/C endpoint: median tumor weight (est.), dose: 24.0 mg/kg/injection, schedule: Q07DX004 (ip), vehicle: saline with Tween-80",0 of 10 on day 30
O=C(C/C(=N\C(=S)Nc1cc(C(F)(F)F)ccc1Cl)NO)N1CCCC1,T/C,"T/C endpoint: median tumor weight change, dose: 62.0 mg/kg/injection, schedule: Q01DX001 (ip), vehicle: saline with Tween-80, evaluated on day 26",129 % of control
COc1ccc(C(=O)/C(Br)=C/C(=O)O)cc1,survivor count,"T/C endpoint: mean tumor weight, dose: 100.0 mg/kg/injection, schedule: Q01DX009 (ip), vehicle: saline",2 of 10
same,T/C,"T/C endpoint: median tumor weight (est.), dose: 8.0 mg/kg/injection, schedule: Q01DX005 (ip), vehicle: saline, evaluated on day 30",125 % of control
same,T/C,"T/C endpoint: median tumor weight (est.), dose: 16.0 mg/kg/injection, schedule: Q04DX005 (ip), vehicle: saline, evaluated on day 30",125 % of control
same,T/C,"T/C endpoint: median tumor weight (est.), dose: 32.0 mg/kg/injection, schedule: Q04DX005 (ip), vehicle: saline, evaluated on day 30",133 % of control
same,survivor count,"T/C endpoint: median tumor weight (est.), dose: 128.0 mg/kg/injection, schedule: Q04DX005 (ip), vehicle: saline",1 of 10
same,survivor count,"T/C endpoint: median tumor weight (est.), dose: 128.0 mg/kg/injection, schedule: Q07DX005 (ip), vehicle: saline",3 of 10
C[C@]12C=CC(=O)C=C1CC[C@@H]1[C@@H]2C(=O)C[C@@]2(C)[C@H]1CC[C@]2(O)C(=O)CO,T/C,"T/C endpoint: mean tumor weight, dose: 50.0 mg/kg/injection, schedule: Q01DX009 (ip), vehicle: saline, evaluated on day 28",140 % of control [9 of 10 alive]
same,survivor count,"T/C endpoint: mean tumor weight, dose: 300.0 mg/kg/injection, schedule: Q07DX005 (ip), vehicle: saline",4 of 10
S=C=NCCc1ccccc1,T/C,"T/C endpoint: median tumor weight (est.), dose: 6.25 mg/kg/injection, schedule: Q07DX005 (ip), vehicle: saline with Tween-80, evaluated on day 32",131 % of control
same,T/C,"T/C endpoint: median tumor weight (est.), dose: 12.5 mg/kg/injection, schedule: Q07DX005 (ip), vehicle: saline with Tween-80, evaluated on day 32",127 % of control
O=CC(=O)c1ccc(O)cc1,survivor count,"T/C endpoint: median tumor weight (est.), dose: 200.0 mg/kg/injection, schedule: Q07DX005 (ip), vehicle: suspension in saline",1 of 10 on day 30
same,survivor count,"T/C endpoint: median tumor weight (est.), dose: 400.0 mg/kg/injection, schedule: Q07DX005 (ip), vehicle: suspension in saline",0 of 10 on day 30
CCCCCCCCCCC(OC(C)=O)C1CCC(C2CCC(C(O)CCCCCCCCCCCCC3C=C(C)OC3=O)O2)O1 (centres undefined),T/C,"T/C endpoint: median tumor weight change, dose: 2.5 mg/kg/injection, schedule: Q01DX001 (ip), vehicle: water, evaluated on day 33",137 % of control
same,T/C,"T/C endpoint: median tumor weight change, dose: 5.0 mg/kg/injection, schedule: Q01DX001 (ip), vehicle: water, evaluated on day 33",140 % of control [8 of 10 alive on day 33]
same,T/C,"T/C endpoint: median tumor weight change, dose: 20.0 mg/kg/injection, schedule: Q01DX001 (ip), vehicle: water, evaluated on day 33",146 % of control
O=C1CCC(=O)N1CO,T/C,"T/C endpoint: median tumor weight change, dose: 62.5 mg/kg/injection, schedule: Q01DX001 (ip), vehicle: saline, evaluated on day 34",125 % of control
N=[N+]=CC(=O)OCC(N)C(=O)O (centres undefined),T/C,"T/C endpoint: median tumor weight (est.), dose: 3.12 mg/kg/injection, schedule: Q07DX005 (ip), vehicle: clinical formulation, evaluated on day 30",140 % of control
same,survivor count,"T/C endpoint: median tumor weight (est.), dose: 50.0 mg/kg/injection, schedule: Q07DX005 (ip), vehicle: water",6 of 10 on day 30
same,survivor count,"T/C endpoint: median tumor weight (est.), dose: 100.0 mg/kg/injection, schedule: Q07DX005 (ip), vehicle: water",0 of 10 on day 30 and 1 of 10 on day 30
C#CCNC1=C(C)C(=O)C2=C(C1=O)[C@H](COC(N)=O)[C@]1(OC)[C@@H]3N[C@@H]3CN21,survivor count,"T/C endpoint: median tumor weight change, dose: 62.0 mg/kg/injection, schedule: Q01DX001 (ip), vehicle: distilled water + Tween-80",1 of 10 on day 28
same,survivor count,"T/C endpoint: median tumor weight change, dose: 125.0 mg/kg/injection, schedule: Q01DX001 (ip), vehicle: distilled water + Tween-80",0 of 10 on day 28
same,survivor count,"T/C endpoint: median tumor weight change, dose: 250.0 mg/kg/injection, schedule: Q01DX001 (ip), vehicle: distilled water + Tween-80",0 of 10 on day 28
same,survivor count,"T/C endpoint: median tumor weight change, dose: 500.0 mg/kg/injection, schedule: Q01DX001 (ip), vehicle: distilled water + Tween-80",0 of 10 on day 28
CC[C@@]1(O)C[C@H](OC2CC(N(C)C)C(OC3CC(O)C(OC4CCC(=O)C(C)O4)C(C)O3)C(C)O2)c2c(cc3c(c2O)C(=O)c2c(O)ccc(O)c2C3=O)[C@H]1C(=O)OC (some centres undefined),T/C,"T/C endpoint: median tumor weight (est.), dose: 1.0 mg/kg/injection, schedule: Q07DX005 (ip), vehicle: water, evaluated on day 32",137 % of control
CCOC(=O)Nc1cc2c(c(N)n1)N=C(c1ccccc1)CN2,survivor count,[2],2 of 10 on day 29
same,survivor count,[3],0 of 10 on day 29
same,survivor count,[4],0 of 10 on day 29
COc1cc([C@@H]2c3cc4c(cc3[C@@H](OC3OC5COC(C)OC5C(O)C3O)[C@H]3COC(=O)[C@H]23)OCO4)cc(OC)c1O (some centres undefined),survivor count,"T/C endpoint: median tumor weight (est.), dose: 64.0 mg/kg/injection, schedule: Q07DX005 (ip), vehicle: saline",5 of 10
Cc1nc(N)nc(N)c1-c1ccc(Cl)c(Cl)c1,T/C,"T/C endpoint: mean tumor weight (est.), dose: 5.0 mg/kg/injection, schedule: Q07DX003 (ip), vehicle: saline with Tween-80, evaluated on day 70",127 % of control [7 of 10 alive]
same,survivor count,[4],1 of 10 on day 28
same,survivor count,"T/C endpoint: median tumor weight change, dose: 100.0 mg/kg/injection, schedule: Q01DX001 (ip), vehicle: suspension in saline",4 of 10 on day 36 and 5 of 10 on day 27
same,survivor count,"T/C endpoint: median tumor weight change, dose: 200.0 mg/kg/injection, schedule: Q01DX001 (ip), vehicle: saline with Tween-80",0 of 10 on day 28
same,survivor count,"T/C endpoint: median tumor weight change, dose: 200.0 mg/kg/injection, schedule: Q01DX001 (ip), vehicle: suspension in saline",0 of 10 on day 36
COC(C(=O)C(O)C(C)O)C1Cc2cc3cc(OC4CC(OC(C)=O)C(OC5CC(O)C(OC)C(C)O5)C(C)O4)cc(O)c3c(O)c2C(=O)C1OC1CC(OC2CC(OC3CC(C)(O)C(OC(=O)C(C)C)C(C)O3)C(O)C(C)O2)C(O)C(C)O1 (centres undefined),T/C,"T/C endpoint: median tumor weight (est.), dose: 0.25 mg/kg/injection, schedule: Q07DX005 (ip), vehicle: saline, evaluated on day 30",142 % of control
CS(=O)(=O)OCCCNCCCOS(C)(=O)=O,survivor count,"T/C endpoint: median tumor weight (est.), dose: 150.0 mg/kg/injection, schedule: Q07DX005 (ip), vehicle: saline",1 of 10
same,survivor count,"T/C endpoint: median tumor weight (est.), dose: 300.0 mg/kg/injection, schedule: Q07DX005 (ip), vehicle: saline",0 of 10 on day 30
O=C(O)C1CC(c2ccccc2)=NN1c1ccccc1 (centres undefined),survivor count,[1],0 of 10 on day 30
O=C1N[C@@H]2C(=C[C@H](O)[C@@H](O)[C@H]2O)c2cc3c(c(O)c21)OCO3,survivor count,[2],4 of 10 on day 28
same,survivor count,[3],0 of 10 on day 28
